The results in this text go back to PMC10688342.

Amino acid sequences for entries named in this document (tags omitted).
UniProt P25490, whole entry: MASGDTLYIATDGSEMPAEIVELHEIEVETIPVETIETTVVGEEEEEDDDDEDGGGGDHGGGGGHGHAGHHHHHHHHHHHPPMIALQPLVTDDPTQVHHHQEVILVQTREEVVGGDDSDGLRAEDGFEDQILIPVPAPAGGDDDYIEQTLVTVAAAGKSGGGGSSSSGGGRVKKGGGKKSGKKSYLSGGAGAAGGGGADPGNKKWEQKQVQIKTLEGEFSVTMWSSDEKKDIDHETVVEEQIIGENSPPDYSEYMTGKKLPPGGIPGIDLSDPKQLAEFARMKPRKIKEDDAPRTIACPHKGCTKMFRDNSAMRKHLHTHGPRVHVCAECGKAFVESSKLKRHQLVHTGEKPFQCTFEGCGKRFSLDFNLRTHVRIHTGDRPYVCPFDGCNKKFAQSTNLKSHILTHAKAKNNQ

What all share (assay): EMSA supershift
Holding throughout (settings): LightShift Chemiluminescent EMSA kit 1x binding buffer, poly(dI-dC), 6% native PAGE, pH and temperature not stated, label: 5'-biotin (probe), unlabeled as cold competitor
On the technique in general: A gel shift assay detects complexes by their altered migration in electrophoresis.

Data set [1] deals with T1, GATA2 (UniProt P23769).
T1 sequence (looked up, limits assumed): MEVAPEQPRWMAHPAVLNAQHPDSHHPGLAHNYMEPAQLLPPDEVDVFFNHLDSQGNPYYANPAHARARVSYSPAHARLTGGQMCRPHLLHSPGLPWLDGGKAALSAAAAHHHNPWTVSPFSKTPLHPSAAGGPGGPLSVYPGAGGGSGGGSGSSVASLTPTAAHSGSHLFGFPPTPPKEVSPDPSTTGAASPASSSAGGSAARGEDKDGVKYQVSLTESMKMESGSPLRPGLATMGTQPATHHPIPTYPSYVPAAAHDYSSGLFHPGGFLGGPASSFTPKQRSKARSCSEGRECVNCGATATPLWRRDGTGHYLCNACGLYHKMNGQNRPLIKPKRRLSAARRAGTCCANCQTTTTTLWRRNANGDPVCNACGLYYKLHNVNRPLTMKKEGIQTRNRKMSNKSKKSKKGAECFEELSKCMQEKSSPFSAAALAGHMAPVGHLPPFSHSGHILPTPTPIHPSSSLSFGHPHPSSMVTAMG

Data set [2] concerns the target T2, ETS1 (UniProt P14921).
T2 sequence (looked up, limits assumed): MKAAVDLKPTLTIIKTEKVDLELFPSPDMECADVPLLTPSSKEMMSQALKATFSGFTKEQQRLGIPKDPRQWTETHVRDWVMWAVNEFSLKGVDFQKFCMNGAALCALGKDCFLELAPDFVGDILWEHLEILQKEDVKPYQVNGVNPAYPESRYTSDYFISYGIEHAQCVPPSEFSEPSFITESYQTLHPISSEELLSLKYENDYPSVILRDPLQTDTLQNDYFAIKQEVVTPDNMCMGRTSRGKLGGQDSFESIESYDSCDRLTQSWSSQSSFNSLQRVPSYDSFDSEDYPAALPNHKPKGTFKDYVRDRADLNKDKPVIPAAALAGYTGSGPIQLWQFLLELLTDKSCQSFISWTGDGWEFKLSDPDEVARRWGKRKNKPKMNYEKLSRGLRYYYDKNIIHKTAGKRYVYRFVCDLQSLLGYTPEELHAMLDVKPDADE

The target of data set [3] is YY1 (UniProt P25490).
Where [4] appears, read: HBDSP-transfected HepG2 nuclear extract, protein in an extract.
Setting [5] is: HepG2 nuclear extract, protein in an ….

Construct, isoform or probe ends are uncertain for at least one entry. At least one result comes from cells or an extract, where the contact may be indirect. At least one verdict was read from the data and is not stated in words by the source. For part of these data: Protein sequences can lack the tags named with them.

“AAATAAGATGGTGTGATATAAAGTA (double strand) [GATA2-3 probe (BS3)]”: the binding result in data set [1] (setting [4]) and in data set [1] (setting [5]) was “binds” each time.
Turning to “AAATCTTATCAGAGTGATAAGGGTT (double strand) [GATA2-2 probe (BS2)]”, the binding result in data set [1] (setting [4]) and in data set [1] (setting [5]) was “binds” in each case.
Turning to “AAGGCTTACGTTTCCATGTACTGAA (double strand) [ETS1 probe]”, the binding result in data set [2] (setting [4]) and in data set [2] (setting [5]) was “binds” in each case.
As to “AAGGCTTACGTTTCCATGTACTGAA (double strand) [YY1-2 probe (BS2)]”, the binding result in data set [3] (setting [4]) and in data set [3] (setting [5]) was “binds” in each case.
As for “AGGAGATTAAATAAGATGGTGTGAT (double strand) [YY1-1 probe (BS1)]”, the binding result in data set [3] (setting [4]) and in data set [3] (setting [5]) was “binds” each time.
Regarding “TGCTACCCAGCACTGATATAGGCAC (double strand) [GATA2-1 probe (BS1)]”, the binding result in data set [1] (setting [4]) and in data set [1] (setting [5]) was “binds” throughout.
